± gives the standard deviation of the averaged measurements. The list shows a part of the results, in another mix than the full data.
Compound: Nc1ncnc2c1ncn2[C@@H]1O[C@H](COP(=O)(O)OP(=O)(O)NP(=O)(O)O)[C@@H](O)[C@H]1O [adenylyl imidodiphosphate]
Assay: NP40-soluble protein abundance relative to vehicle (solubility fold change) (ratio); higher = more soluble protein in presence of AMP-PNP
Procedure, shortened: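 Jurkat crude lysate prepared with a Dounce homogeniser was treated at eight concentrations spanning 0.1 to 10 mM, 10 min at room temperature then 3 min at 37 °C. Solubilisation with 0.8% NP40 and benzonase and ultracentrifugation preceded TMT labelling of the supernatant for LC-MS/MS. Fold change against the detergent-processed vehicle was determined per replicate from vsn-normalised intensities, across three independent experiments.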

Protein sequences, listed by entry. Tags and fused reporters are not part of them. Lines headed by an entry give the natural chain unless they say otherwise; changes in a name come on top.
UniProt Q92643: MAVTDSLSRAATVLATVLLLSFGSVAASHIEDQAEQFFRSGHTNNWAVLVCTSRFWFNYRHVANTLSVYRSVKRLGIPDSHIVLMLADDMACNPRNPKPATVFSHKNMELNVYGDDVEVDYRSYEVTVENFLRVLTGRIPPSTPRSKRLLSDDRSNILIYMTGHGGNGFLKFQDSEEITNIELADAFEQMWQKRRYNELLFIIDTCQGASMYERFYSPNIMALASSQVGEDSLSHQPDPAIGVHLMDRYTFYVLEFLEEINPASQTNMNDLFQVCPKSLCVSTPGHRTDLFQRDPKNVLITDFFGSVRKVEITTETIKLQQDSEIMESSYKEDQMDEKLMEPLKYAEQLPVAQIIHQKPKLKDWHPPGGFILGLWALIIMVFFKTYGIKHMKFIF
UniProt Q8WWC4: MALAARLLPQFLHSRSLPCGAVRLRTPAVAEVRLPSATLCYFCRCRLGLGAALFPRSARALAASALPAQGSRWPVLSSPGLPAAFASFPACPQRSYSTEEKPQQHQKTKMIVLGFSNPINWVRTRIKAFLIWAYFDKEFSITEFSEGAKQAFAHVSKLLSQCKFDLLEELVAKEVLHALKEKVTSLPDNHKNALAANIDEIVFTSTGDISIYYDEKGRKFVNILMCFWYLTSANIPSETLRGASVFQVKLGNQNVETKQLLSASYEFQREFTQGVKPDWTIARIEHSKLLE
UniProt Q8WY22: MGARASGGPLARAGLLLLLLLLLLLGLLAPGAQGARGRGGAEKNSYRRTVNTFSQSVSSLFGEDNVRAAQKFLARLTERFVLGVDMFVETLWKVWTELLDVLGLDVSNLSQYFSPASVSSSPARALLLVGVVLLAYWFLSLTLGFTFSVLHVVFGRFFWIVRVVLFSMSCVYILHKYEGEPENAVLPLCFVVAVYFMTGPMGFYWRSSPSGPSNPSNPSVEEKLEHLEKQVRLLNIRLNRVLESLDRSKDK
UniProt Q92621: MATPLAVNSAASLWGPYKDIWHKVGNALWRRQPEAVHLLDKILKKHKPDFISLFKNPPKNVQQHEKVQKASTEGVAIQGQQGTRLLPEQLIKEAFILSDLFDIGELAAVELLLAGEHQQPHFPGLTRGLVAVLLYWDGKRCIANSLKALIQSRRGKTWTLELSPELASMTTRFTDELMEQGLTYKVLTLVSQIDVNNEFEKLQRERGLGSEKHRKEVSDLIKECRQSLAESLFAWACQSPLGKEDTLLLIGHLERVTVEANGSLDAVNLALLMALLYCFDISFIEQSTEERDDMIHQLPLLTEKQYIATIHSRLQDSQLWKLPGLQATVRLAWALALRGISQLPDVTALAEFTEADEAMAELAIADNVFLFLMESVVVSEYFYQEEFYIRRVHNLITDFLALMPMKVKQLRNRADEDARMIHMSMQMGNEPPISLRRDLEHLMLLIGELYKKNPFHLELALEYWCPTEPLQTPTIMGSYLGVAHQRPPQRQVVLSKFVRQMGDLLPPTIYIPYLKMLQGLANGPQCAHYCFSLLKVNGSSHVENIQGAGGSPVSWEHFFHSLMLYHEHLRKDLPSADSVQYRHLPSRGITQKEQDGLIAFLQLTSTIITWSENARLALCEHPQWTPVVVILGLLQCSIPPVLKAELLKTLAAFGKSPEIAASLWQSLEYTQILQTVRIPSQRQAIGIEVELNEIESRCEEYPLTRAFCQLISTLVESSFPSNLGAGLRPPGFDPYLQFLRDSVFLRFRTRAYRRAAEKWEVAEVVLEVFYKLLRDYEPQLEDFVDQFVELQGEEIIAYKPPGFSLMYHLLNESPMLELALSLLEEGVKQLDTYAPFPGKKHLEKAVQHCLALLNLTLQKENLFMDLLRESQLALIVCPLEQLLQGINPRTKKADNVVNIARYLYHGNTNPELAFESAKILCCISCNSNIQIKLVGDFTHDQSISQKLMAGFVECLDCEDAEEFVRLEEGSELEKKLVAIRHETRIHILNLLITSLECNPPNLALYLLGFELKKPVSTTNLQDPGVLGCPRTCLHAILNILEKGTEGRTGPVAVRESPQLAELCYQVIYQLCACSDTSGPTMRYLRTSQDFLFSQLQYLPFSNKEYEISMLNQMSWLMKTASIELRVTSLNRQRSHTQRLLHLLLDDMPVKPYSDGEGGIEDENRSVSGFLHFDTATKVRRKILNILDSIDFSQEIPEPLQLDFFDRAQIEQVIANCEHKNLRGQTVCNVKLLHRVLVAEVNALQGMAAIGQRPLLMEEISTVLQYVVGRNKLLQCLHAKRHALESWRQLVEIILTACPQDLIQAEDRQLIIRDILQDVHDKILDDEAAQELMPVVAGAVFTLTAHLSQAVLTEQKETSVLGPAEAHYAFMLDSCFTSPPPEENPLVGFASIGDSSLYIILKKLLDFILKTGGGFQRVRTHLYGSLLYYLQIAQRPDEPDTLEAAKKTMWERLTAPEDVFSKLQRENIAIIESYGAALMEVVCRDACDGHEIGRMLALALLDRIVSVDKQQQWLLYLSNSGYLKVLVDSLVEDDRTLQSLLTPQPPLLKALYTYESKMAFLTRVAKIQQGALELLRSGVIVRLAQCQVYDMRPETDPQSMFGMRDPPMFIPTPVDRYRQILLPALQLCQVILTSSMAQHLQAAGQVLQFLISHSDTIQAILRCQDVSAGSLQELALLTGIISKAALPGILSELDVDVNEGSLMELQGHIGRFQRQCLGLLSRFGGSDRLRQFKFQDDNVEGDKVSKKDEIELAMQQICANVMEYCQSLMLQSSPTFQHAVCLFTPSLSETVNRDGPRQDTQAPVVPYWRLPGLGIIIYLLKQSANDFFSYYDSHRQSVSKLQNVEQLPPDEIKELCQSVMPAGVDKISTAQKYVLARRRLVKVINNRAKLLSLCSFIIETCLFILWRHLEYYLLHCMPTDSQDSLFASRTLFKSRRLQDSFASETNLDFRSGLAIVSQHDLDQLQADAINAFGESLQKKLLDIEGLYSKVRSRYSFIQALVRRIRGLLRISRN
UniProt Q8NG68: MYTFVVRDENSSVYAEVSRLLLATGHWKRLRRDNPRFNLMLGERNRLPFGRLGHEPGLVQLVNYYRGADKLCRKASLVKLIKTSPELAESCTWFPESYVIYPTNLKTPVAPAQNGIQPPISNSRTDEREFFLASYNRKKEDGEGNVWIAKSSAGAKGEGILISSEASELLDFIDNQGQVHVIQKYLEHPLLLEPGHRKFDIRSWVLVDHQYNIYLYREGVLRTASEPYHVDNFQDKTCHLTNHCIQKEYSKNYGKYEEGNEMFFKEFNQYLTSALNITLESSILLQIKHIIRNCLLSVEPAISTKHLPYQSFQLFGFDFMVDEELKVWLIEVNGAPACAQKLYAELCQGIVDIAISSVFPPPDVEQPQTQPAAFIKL
UniProt Q8TEQ8: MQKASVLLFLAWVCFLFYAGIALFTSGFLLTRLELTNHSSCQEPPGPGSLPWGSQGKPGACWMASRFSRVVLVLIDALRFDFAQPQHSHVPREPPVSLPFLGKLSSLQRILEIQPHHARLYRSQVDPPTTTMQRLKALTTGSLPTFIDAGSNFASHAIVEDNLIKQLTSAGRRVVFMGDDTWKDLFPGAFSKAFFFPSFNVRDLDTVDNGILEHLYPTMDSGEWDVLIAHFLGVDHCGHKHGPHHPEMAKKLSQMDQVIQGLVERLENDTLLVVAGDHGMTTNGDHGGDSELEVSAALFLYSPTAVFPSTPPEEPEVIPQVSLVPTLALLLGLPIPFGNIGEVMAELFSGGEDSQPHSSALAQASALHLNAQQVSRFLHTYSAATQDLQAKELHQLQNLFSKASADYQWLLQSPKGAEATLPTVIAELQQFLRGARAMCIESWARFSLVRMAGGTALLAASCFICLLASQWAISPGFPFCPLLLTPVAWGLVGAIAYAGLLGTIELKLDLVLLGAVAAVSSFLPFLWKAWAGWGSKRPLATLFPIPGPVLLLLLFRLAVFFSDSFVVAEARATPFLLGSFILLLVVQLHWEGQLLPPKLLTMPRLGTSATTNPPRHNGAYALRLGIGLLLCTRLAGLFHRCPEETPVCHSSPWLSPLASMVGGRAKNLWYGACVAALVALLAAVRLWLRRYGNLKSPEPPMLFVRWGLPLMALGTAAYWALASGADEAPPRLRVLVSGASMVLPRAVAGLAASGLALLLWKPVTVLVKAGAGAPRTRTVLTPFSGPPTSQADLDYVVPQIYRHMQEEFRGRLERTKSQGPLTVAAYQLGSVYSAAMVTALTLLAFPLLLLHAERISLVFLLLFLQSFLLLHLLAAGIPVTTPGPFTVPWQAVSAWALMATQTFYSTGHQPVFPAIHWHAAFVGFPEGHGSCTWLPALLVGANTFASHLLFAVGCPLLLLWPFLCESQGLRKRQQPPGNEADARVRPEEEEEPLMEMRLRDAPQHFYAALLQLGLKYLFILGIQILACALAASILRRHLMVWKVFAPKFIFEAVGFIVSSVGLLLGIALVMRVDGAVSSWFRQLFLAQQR
UniProt Q92522: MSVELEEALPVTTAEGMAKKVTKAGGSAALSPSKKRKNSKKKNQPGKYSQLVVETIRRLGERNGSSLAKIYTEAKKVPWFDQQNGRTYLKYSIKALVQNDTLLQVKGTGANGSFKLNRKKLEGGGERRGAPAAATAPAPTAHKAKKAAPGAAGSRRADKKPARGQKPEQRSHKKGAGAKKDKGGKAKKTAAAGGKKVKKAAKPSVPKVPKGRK
UniProt Q8TF46, whole entry: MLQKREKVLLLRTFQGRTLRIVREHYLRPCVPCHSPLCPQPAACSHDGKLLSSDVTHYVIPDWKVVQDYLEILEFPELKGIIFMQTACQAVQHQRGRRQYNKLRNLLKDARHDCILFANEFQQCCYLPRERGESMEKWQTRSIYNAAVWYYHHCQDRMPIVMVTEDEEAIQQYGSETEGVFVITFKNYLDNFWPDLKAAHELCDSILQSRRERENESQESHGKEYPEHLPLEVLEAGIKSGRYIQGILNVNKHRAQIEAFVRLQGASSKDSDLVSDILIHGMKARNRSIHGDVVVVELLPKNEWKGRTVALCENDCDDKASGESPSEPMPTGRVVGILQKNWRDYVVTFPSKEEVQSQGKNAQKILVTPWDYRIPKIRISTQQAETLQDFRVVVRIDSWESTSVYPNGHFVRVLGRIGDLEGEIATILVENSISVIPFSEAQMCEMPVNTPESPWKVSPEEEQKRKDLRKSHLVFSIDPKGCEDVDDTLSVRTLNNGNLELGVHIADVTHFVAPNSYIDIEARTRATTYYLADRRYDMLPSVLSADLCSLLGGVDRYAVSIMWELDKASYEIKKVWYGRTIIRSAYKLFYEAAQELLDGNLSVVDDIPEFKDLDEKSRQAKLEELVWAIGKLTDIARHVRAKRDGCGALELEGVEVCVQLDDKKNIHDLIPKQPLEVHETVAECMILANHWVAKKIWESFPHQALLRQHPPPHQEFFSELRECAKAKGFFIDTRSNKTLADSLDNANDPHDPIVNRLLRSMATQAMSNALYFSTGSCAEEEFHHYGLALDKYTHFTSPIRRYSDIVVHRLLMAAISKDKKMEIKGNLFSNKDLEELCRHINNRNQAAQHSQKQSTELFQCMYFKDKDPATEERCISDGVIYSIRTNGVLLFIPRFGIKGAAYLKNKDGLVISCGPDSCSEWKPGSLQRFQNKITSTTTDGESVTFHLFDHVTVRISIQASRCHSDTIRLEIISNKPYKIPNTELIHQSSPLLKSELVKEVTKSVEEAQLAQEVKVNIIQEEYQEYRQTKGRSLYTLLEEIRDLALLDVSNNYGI
UniProt Q8TCT7: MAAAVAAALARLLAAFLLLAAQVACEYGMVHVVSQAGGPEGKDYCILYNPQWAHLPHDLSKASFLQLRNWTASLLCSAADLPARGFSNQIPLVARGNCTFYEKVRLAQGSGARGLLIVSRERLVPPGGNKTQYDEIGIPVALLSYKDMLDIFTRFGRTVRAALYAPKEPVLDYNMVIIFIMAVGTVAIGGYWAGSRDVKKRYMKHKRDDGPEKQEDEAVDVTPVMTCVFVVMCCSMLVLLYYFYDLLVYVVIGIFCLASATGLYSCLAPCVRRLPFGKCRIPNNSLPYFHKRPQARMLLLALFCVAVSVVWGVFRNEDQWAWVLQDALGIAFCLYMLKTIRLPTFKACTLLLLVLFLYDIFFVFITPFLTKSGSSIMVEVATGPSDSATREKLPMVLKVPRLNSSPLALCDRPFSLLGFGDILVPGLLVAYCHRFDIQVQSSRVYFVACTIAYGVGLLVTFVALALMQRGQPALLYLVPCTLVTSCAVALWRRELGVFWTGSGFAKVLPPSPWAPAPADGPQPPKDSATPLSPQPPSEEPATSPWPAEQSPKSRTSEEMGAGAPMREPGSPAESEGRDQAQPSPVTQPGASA
UniProt Q8TA86: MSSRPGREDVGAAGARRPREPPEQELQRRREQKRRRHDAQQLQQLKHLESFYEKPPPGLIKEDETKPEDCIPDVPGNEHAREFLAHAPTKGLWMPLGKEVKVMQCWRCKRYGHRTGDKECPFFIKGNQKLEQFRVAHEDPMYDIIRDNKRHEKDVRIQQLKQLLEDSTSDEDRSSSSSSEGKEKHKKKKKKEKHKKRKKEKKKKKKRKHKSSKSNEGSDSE

Target	NP40-soluble protein abundance (concentration: 1mM)	NP40-soluble protein abundance (concentration: 2mM)	NP40-soluble protein abundance (concentration: 4mM)	NP40-soluble protein abundance (concentration: 6mM)	NP40-soluble protein abundance (concentration: 8mM)	NP40-soluble protein abundance (concentration: 10mM)
PPIL4 (UniProt Q8WUA2)	1.03 ± 0.0066	1.04 ± 0.018	1.03 ± 0.034	1.01 ± 0.039	1 ± 0.034	1.02 ± 0.018
PIGK (UniProt Q92643)	1.03 ± 0.034	0.951 ± 0.085	0.98 ± 0.021	0.953 ± 0.026	0.977 ± 0.032	0.972 ± 0.038
UniProt Q8TBX8	0.98 ± 0.02	0.979 ± 0.0079	1.01 ± 0.024	1.044 ± 0.0097	1.06 ± 0.04	1.07 ± 0.034
GTF2H4 (UniProt Q92759)	1.008 ± 0.0089	0.961 ± 0.045	1.01 ± 0.018	1 ± 0.02	1.02 ± 0.025	0.978 ± 0.035
UniProt Q8WWC4	1.02 ± 0.048	0.94 ± 0.011	0.996 ± 0.049	0.95 ± 0.049	1 ± 0.038	0.946 ± 0.056
ABHD11 (UniProt Q8NFV4)	1.02 ± 0.035	1.046 ± 0.0096	1.04 ± 0.023	0.995 ± 0.028	1 ± 0.02	1.01 ± 0.048
ERCC4 (UniProt Q92889)	1.01 ± 0.016	1.01 ± 0.049	1.03 ± 0.014	0.9697 ± 0.0049	0.99 ± 0.013	0.975 ± 0.025
BRI3BP (UniProt Q8WY22)	0.96 ± 0.04	0.955 ± 0.03	1.02 ± 0.034	1.13 ± 0.12	1.15 ± 0.1	1.12 ± 0.084
SMARCC1 (UniProt Q92922)	1.05 ± 0.063	1.1 ± 0.05	1.04 ± 0.041	1.07 ± 0.086	1.04 ± 0.077	1.1 ± 0.11
NUP205 (UniProt Q92621)	0.996 ± 0.033	0.959 ± 0.057	0.99 ± 0.019	0.943 ± 0.04	1 ± 0.036	1.01 ± 0.051
UniProt Q8WXE1 and related entries	1.01 ± 0.038	1.04 ± 0.018	0.9845 ± 0.0052	0.983 ± 0.035	0.979 ± 0.065	0.997 ± 0.039
UniProt Q8TF05 and related entries	0.974 ± 0.029	0.935 ± 0.014	0.964 ± 0.017	0.91 ± 0.047	0.915 ± 0.044	0.895 ± 0.041
NT5C (UniProt Q8TCD5)	0.968 ± 0.031	0.93 ± 0.015	0.932 ± 0.021	0.977 ± 0.093	1.04 ± 0.09	0.986 ± 0.049
TTL (UniProt Q8NG68)	1.0715 ± 0.00069	1.03 ± 0.036	1.08 ± 0.056	1.05 ± 0.014	1.05 ± 0.029	1.01 ± 0.054
UniProt Q8NI22 and related entries	1.02 ± 0.035	1.02 ± 0.019	0.985 ± 0.034	0.998 ± 0.011	1.002 ± 0.01	0.986 ± 0.013
UniProt Q8TEQ8 and related entries	0.996 ± 0.044	0.987 ± 0.021	0.99 ± 0.024	0.967 ± 0.021	0.981 ± 0.031	0.972 ± 0.044
DPF2 (UniProt Q92785)	0.961 ± 0.071	0.98 ± 0.032	0.959 ± 0.078	0.961 ± 0.095	0.925 ± 0.066	0.936 ± 0.079
H1FX (UniProt Q92522)	0.992 ± 0.053	1.07 ± 0.08	1.04 ± 0.052	1.13 ± 0.099	1.11 ± 0.099	1.27 ± 0.048
UniProt Q8TF46 and related entries	1.02 ± 0.038	1.01 ± 0.055	1.04 ± 0.068	0.994 ± 0.043	1.03 ± 0.046	1.05 ± 0.013
RNF214 (UniProt Q8ND24)	1.02 ± 0.021	1.04 ± 0.053	1.02 ± 0.042	1.02 ± 0.016	1.01 ± 0.047	1.02 ± 0.04

An excerpt of these results, as labelled records:
GTF2H4 (UniProt Q92759)
  NP40-soluble protein abundance (concentration: 1mM): 1.008 ± 0.0089; NP40-soluble protein abundance (concentration: 2mM): 0.961 ± 0.045; NP40-soluble protein abundance (concentration: 4mM): 1.01 ± 0.018; NP40-soluble protein abundance (concentration: 6mM): 1 ± 0.02; NP40-soluble protein abundance (concentration: 8mM): 1.02 ± 0.025; NP40-soluble protein abundance (concentration: 10mM): 0.978 ± 0.035
UniProt Q8WWC4
  NP40-soluble protein abundance (concentration: 1mM): 1.02 ± 0.048; NP40-soluble protein abundance (concentration: 2mM): 0.94 ± 0.011; NP40-soluble protein abundance (concentration: 4mM): 0.996 ± 0.049; NP40-soluble protein abundance (concentration: 6mM): 0.95 ± 0.049; NP40-soluble protein abundance (concentration: 8mM): 1 ± 0.038; NP40-soluble protein abundance (concentration: 10mM): 0.946 ± 0.056
ABHD11 (UniProt Q8NFV4)
  NP40-soluble protein abundance (concentration: 1mM): 1.02 ± 0.035; NP40-soluble protein abundance (concentration: 2mM): 1.046 ± 0.0096; NP40-soluble protein abundance (concentration: 4mM): 1.04 ± 0.023; NP40-soluble protein abundance (concentration: 6mM): 0.995 ± 0.028; NP40-soluble protein abundance (concentration: 8mM): 1 ± 0.02; NP40-soluble protein abundance (concentration: 10mM): 1.01 ± 0.048
ERCC4 (UniProt Q92889)
  NP40-soluble protein abundance (concentration: 1mM): 1.01 ± 0.016; NP40-soluble protein abundance (concentration: 2mM): 1.01 ± 0.049; NP40-soluble protein abundance (concentration: 4mM): 1.03 ± 0.014; NP40-soluble protein abundance (concentration: 6mM): 0.9697 ± 0.0049; NP40-soluble protein abundance (concentration: 8mM): 0.99 ± 0.013; NP40-soluble protein abundance (concentration: 10mM): 0.975 ± 0.025

Additional records follow:

Target	NP40-soluble protein abundance (concentration: 1mM)	NP40-soluble protein abundance (concentration: 2mM)	NP40-soluble protein abundance (concentration: 4mM)	NP40-soluble protein abundance (concentration: 6mM)	NP40-soluble protein abundance (concentration: 8mM)	NP40-soluble protein abundance (concentration: 10mM)
SLC44A1 (UniProt Q8WWI5)	1.01 ± 0.022	1.02 ± 0.043	1.02 ± 0.048	0.9897 ± 0.0045	1.01 ± 0.021	1.02 ± 0.029
TOR1AIP2 (UniProt Q8NFQ8)	0.996 ± 0.031	1.04 ± 0.068	0.956 ± 0.023	0.984 ± 0.026	0.945 ± 0.019	0.985 ± 0.029
NEK9 (UniProt Q8TD19)	0.984 ± 0.015	0.9512 ± 0.006	0.975 ± 0.012	0.97 ± 0.04	0.976 ± 0.05	0.947 ± 0.021
KHSRP (UniProt Q92945)	1.022 ± 0.0033	1.08 ± 0.071	1.01 ± 0.033	0.9997 ± 0.0068	0.976 ± 0.016	0.994 ± 0.046
UniProt Q8WUY1	1 ± 0.011	0.993 ± 0.035	1 ± 0.018	0.994 ± 0.044	0.995 ± 0.052	0.959 ± 0.033
NUP210 (UniProt Q8TEM1)	0.992 ± 0.025	0.952 ± 0.025	0.975 ± 0.021	0.972 ± 0.037	1.01 ± 0.029	0.986 ± 0.044
UniProt Q92552 and related entries	0.976 ± 0.047	0.963 ± 0.048	0.954 ± 0.094	0.962 ± 0.13	0.928 ± 0.095	0.951 ± 0.16
SRFBP1 (UniProt Q8NEF9)	1.04 ± 0.038	1.07 ± 0.048	1.04 ± 0.021	1.037 ± 0.0045	1.042 ± 0.0097	1.06 ± 0.025
PLBD2 (UniProt Q8NHP8)	0.973 ± 0.029	1 ± 0.032	0.977 ± 0.049	1.01 ± 0.051	0.978 ± 0.043	1.02 ± 0.044
ZNF384 (UniProt Q8TF68)	1 ± 0.045	1.05 ± 0.051	1.031 ± 0.0019	1.02 ± 0.046	1.02 ± 0.043	1.05 ± 0.033
GPKOW (UniProt Q92917)	1.06 ± 0.021	1.1 ± 0.057	1.05 ± 0.046	1.04 ± 0.019	1.015 ± 0.0094	1.06 ± 0.025
UniProt Q92834 and related entries	0.987 ± 0.017	1.01 ± 0.047	1 ± 0.012	0.9855 ± 0.0088	0.986 ± 0.011	0.986 ± 0.019
GEMIN5 (UniProt Q8TEQ6)	0.9738 ± 0.0087	0.976 ± 0.028	0.987 ± 0.029	0.972 ± 0.023	0.982 ± 0.025	0.967 ± 0.038
UniProt Q92900 and related entries	0.983 ± 0.023	0.918 ± 0.075	0.954 ± 0.015	0.957 ± 0.01	0.962 ± 0.026	0.925 ± 0.03
UniProt Q8WWK9 and related entries	0.999 ± 0.026	1.07 ± 0.11	1.06 ± 0.048	1.08 ± 0.053	1.09 ± 0.074	1.17 ± 0.12
UniProt Q8NFD5 and related entries	0.983 ± 0.022	1.02 ± 0.04	1.02 ± 0.031	0.989 ± 0.02	0.964 ± 0.018	1.01 ± 0.074
NUP37 (UniProt Q8NFH4)	0.97 ± 0.086	0.896 ± 0.076	0.967 ± 0.071	0.98 ± 0.032	1 ± 0.037	1 ± 0.04
FAR1 (UniProt Q8WVX9)	1.03 ± 0.027	0.961 ± 0.036	1.005 ± 0.006	0.949 ± 0.023	1.01 ± 0.031	0.97 ± 0.0097
LPCAT1 (UniProt Q8NF37)	0.945 ± 0.025	0.902 ± 0.09	0.932 ± 0.043	0.93 ± 0.039	0.896 ± 0.041	0.875 ± 0.034
DHX38 (UniProt Q92620)	1.016 ± 0.0095	1.03 ± 0.037	1.03 ± 0.012	1.01 ± 0.055	1.04 ± 0.034	1.03 ± 0.023

Target	NP40-soluble protein abundance (concentration: 1mM)	NP40-soluble protein abundance (concentration: 2mM)	NP40-soluble protein abundance (concentration: 4mM)	NP40-soluble protein abundance (concentration: 6mM)	NP40-soluble protein abundance (concentration: 8mM)	NP40-soluble protein abundance (concentration: 10mM)
BAP1 (UniProt Q92560)	1.02 ± 0.031	1.05 ± 0.031	1.03 ± 0.03	1 ± 0.016	0.989 ± 0.036	1.02 ± 0.031
JARID2 (UniProt Q92833)	1.03 ± 0.045	0.9985 ± 0.0084	1 ± 0.075	1.02 ± 0.016	1.01 ± 0.019	1.02 ± 0.027
CHAC2 (UniProt Q8WUX2)	1 ± 0.028	0.957 ± 0.02	0.992 ± 0.023	0.963 ± 0.022	1.01 ± 0.023	0.96 ± 0.026
UniProt Q92619	0.9938 ± 0.0083	1.04 ± 0.042	1.04 ± 0.053	1.06 ± 0.025	1.05 ± 0.042	1.08 ± 0.086
UniProt Q8TCT7 and related entries	0.984 ± 0.025	0.992 ± 0.037	0.988 ± 0.018	1.03 ± 0.046	1.03 ± 0.047	1.04 ± 0.032
UniProt Q8WWY3 and related entries	0.982 ± 0.025	1.01 ± 0.051	0.998 ± 0.02	1.089 ± 0.008	1.07 ± 0.011	1.13 ± 0.057
DDX1 (UniProt Q92499)	0.959 ± 0.012	0.91 ± 0.11	0.96 ± 0.014	0.987 ± 0.017	1.004 ± 0.0053	0.982 ± 0.037
UniProt Q92572	0.972 ± 0.016	0.958 ± 0.02	0.957 ± 0.021	0.962 ± 0.029	0.953 ± 0.027	0.933 ± 0.0066
UniProt Q8TCB7 and related entries	0.989 ± 0.012	0.993 ± 0.019	0.9941 ± 0.0093	1.01 ± 0.019	1.01 ± 0.009	1.04 ± 0.028
TMEM131 (UniProt Q92545)	0.967 ± 0.013	0.991 ± 0.023	0.979 ± 0.027	0.992 ± 0.029	0.971 ± 0.012	1 ± 0.032
UniProt Q8NDI1-2|Q8NDI1-3	0.979 ± 0.042	0.947 ± 0.04	0.951 ± 0.036	0.971 ± 0.013	0.966 ± 0.065	0.922 ± 0.032
HSD17B8 (UniProt Q92506)	1.05 ± 0.045	1.03 ± 0.031	1.04 ± 0.018	1.06 ± 0.019	1.04 ± 0.024	1.075 ± 0.0054
ELMO1 (UniProt Q92556)	0.966 ± 0.018	0.947 ± 0.021	0.9671 ± 0.0054	0.986 ± 0.018	0.9785 ± 0.0086	0.9827 ± 0.0036
ZNRF2 (UniProt Q8NHG8)	1.04 ± 0.037	1.1 ± 0.068	1 ± 0.027	1.02 ± 0.017	0.982 ± 0.03	0.988 ± 0.019
UniProt Q8TA86 and related entries	0.985 ± 0.026	1.03 ± 0.089	0.976 ± 0.062	0.969 ± 0.052	1.02 ± 0.019	0.986 ± 0.064
UniProt Q8TEV9 and related entries	1.01 ± 0.023	1.01 ± 0.046	1.01 ± 0.039	0.987 ± 0.013	0.942 ± 0.019	0.967 ± 0.017
CHD6 (UniProt Q8TD26)	1.03 ± 0.044	1.02 ± 0.034	1.03 ± 0.065	1 ± 0.031	0.973 ± 0.054	0.989 ± 0.031
UniProt Q8ND82 and related entries	1.04 ± 0.028	1.07 ± 0.056	1.08 ± 0.026	1.06 ± 0.008	1.07 ± 0.06	1.14 ± 0.014
UniProt Q8NDX5 and related entries	1.027 ± 0.0036	1.017 ± 0.0026	1.04 ± 0.045	1.047 ± 0.0044	1.05 ± 0.018	1.1 ± 0.016
UniProt Q8TCE6 and related entries	0.992 ± 0.025	0.973 ± 0.04	0.956 ± 0.01	0.966 ± 0.023	0.9542 ± 0.006	0.941 ± 0.039
